Assay results reported in PubChem BioAssay AID493014 (National Center for Advancing Translational Sciences (NCATS), 2011).
Hit rate of the full screen: of about 340,000 compounds, about 170 (0.05%) were called active. Inconclusive results, whose numbers are uncertain, are shown with a selection of clear calls. The call rests on the fitted dose curve; in most records, active means well fitted inhibition curve with a large enough effect in the signal ratio, with a control signal flat (not every such curve was filed as active); inconclusive means small, poorly fitted or top-dose-only effect, or effect the other way, or a change in a side signal; inactive means flat fitted curve, though single readings scatter; the % refers to the signal ratio. A potency beside an inconclusive call is a rough fit, not a confirmed value.

Assay: qHTS Assay to Find Inhibitors of Chronic Active B-Cell Receptor Signaling;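 on activity change, negative = inhibition: plate controls were basal doxycycline-induced cells for no effect and cells given 10 µM MG132 for full effect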
Settings: ABC-DLBCL IkBa-CBG/CBR reporter, luminescence ratio (green luciferase fused to IkBa over red control in TMD8 lymphoma cells), 4 h; activity change, negative = inhibition: at 46.1 µM (top of the series)
How it was run: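 TMD8 human ABC-DLBCL cells with doxycycline-inducible IκBα–green luciferase fusion and unfused red luciferase, in 0.5% FBS medium; compounds up to 46 uM, 4 h at 37C. Green/red luminescence ratio, filter-overlap corrected, fitted to concentration-response curves.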
Potency means the concentration at half of the fitted maximal effect.

| Structure (SMILES) | Potency | activity change, negative = inhibition |
| --- | --- | --- |
| Cc1ccccc1C(=O)Nc1cccc(NC(=O)Cn2cnc3c(=O)n(C)c(=O)n(C)c32)c1 | inconclusive: 4.11 µM [falling, full curve] | – |
| CS(=O)(=O)N1CCC(Oc2ccccc2C(=O)N2CCC[C@H]2CO)CC1 | – | inactive: 3.33% |
| Cc1cccc2nc(CNc3ccc(F)cc3)cn12 | – | inconclusive: 3.38% |
| O=C(Nc1ccccc1)c1csc(-c2ccccc2)n1 | – | inconclusive: -23.1% |
| CCOC(=O)C1(CC2CC2)CCN(Cc2ccc(C(=O)OC)cc2)CC1 | – | inactive: -9.49% |
| CC(C)CCn1c(NCCc2ccccc2)nc2c1c(=O)n(C)c(=O)n2C | – | inconclusive: -0.543% |
| C=CC[C@@H](CC(=O)N(CCO)Cc1ccccc1)C(=O)NC[C@H](OC(=O)[C@@H](CC=C)Cc1ccc(F)cc1)c1ccccc1 | – | inconclusive: -1.94% |
| COC(=O)c1ccc(CN2CCc3ccccc32)cc1 | – | inconclusive: -0.999% |
| CC(=O)COc1ccc2c(C)c(-c3ccccc3)c(=O)oc2c1 | – | inconclusive: 8.52% |
| Cc1cc(C)c2ccc(Cl)cc2n1 | – | inconclusive: 0.84% |
| COc1ccc(Cl)cc1C(=O)Nc1ccc2c(c1)OCO2 | – | inconclusive: -0.745% |
| O=C(COC(=O)CCNS(=O)(=O)c1cccs1)Nc1ccccc1 | – | inactive: 6.3% |
| Cc1ccsc1/C=C1\SC(N)=NC1=O | inconclusive: 12.6 µM [falling, partial curve] | – |
| COc1ccc(C(=O)NNC(=S)NC(=O)c2cccs2)cc1 | inconclusive: 28.2 µM [falling, single point] | – |
| CCS(=O)(=O)c1ccc2oc(SCC(=O)NC(C)C3CC4CCC3C4)nc2c1 (configuration not stated) | – | inactive: -34% |
| COc1ccc(/C=N/NC(=S)Nc2ccccc2)cc1COc1ccc(F)cc1F | – | inconclusive: 2.01% |
| Cc1ccc(-c2nnc(OCc3cccnc3)c3ccccc23)cc1 | inconclusive: 35.5 µM [falling, single point] | – |
| Cc1ccc(-n2c(C)cc(/C=C3\NC(=O)NC3=O)c2C)c(C)c1 | – | inactive: -1.15% |
| Cc1ccc(-c2cc(Cc3ccccn3)c(=O)[nH]n2)cc1 | – | inactive: 11.1% |

Entries from the list above that have a Cl atom, in the order listed:

| Structure (SMILES) | Potency | activity change, negative = inhibition |
| --- | --- | --- |
| Cc1cc(C)c2ccc(Cl)cc2n1 | – | inconclusive: 0.84% |
| COc1ccc(Cl)cc1C(=O)Nc1ccc2c(c1)OCO2 | – | inconclusive: -0.745% |

An excerpt from above in order of count of non-hydrogen atoms, ascending:

| Structure (SMILES) | Potency | activity change, negative = inhibition |
| --- | --- | --- |
| Cc1cc(C)c2ccc(Cl)cc2n1 | – | inconclusive: 0.84% |
| Cc1cccc2nc(CNc3ccc(F)cc3)cn12 | – | inconclusive: 3.38% |
| COc1ccc(Cl)cc1C(=O)Nc1ccc2c(c1)OCO2 | – | inconclusive: -0.745% |

(list continues)

| Structure (SMILES) | Potency | activity change, negative = inhibition |
| --- | --- | --- |
| COc1cc(NS(=O)(=O)c2ccc3ccccc3c2)c2ncccc2c1 | – | inconclusive: 1.3% |
| CCOC(=O)C1=C(C)N(C)C(=S)NC1c1ccc(Cl)cc1 (configuration not stated) | – | inconclusive: 22.4% |
| COc1cc(F)c(C2=CC(=O)C[C@H](c3ccc(F)cc3)C2)cc1F | – | inactive: 0.432% |
| C/C=C/C=C\C(=O)Nc1cccc(C2=NOC3(C2)C[C@H](C(N)=O)N(C(=O)CC#N)C3)c1 (some centres not stated) | – | inconclusive: -12.8% |
| O=C(NC(=S)Nc1ccccc1Cl)c1cncc(C#Cc2ccccc2)c1 | – | inconclusive: -4.39% |
| COc1cc(SC)ccc1C(=O)N1CC(C)OC(C)C1 (configuration not stated) | – | inconclusive: 6.77% |
| CCCc1ccc(OCC(O)CN2CCCC2)cc1 (configuration not stated) | – | inactive: -2.62% |
| OC(CNCc1ccc(F)cc1)(c1ccccc1)c1ccc(F)cc1 (configuration not stated) | – | inactive: -9.97% |
| Cc1nccn1CCOc1ccc(Cl)cc1 | – | inactive: -0.359% |
| C#CCSc1nnc(CSc2nc3ccccc3s2)n1-c1ccccc1 | – | inactive: 24.6% |
| Nc1c(C(=O)NCc2ccco2)nnn1CC(=O)Nc1ccccc1 | – | inactive: 4.56% |
| COCCN(CCOC)c1ncnc2c1c(-c1ccccc1)cn2-c1ccc(C)c(Cl)c1 | – | inactive: -3.47% |
| CCCCNC(=O)C(CC)Sc1nc2ccccc2c(=O)n1CCc1ccc(OC)c(OC)c1 (configuration not stated) | – | inactive: -9.94% |
| C/C(=N\Nc1ccc(Cl)c(Cl)c1)c1ccc(-n2ccnc2)cc1 | inconclusive: 32.6 µM [falling, partial curve, poor fit] | – |
| O=C(NCc1cccc2[nH]ccc12)C1CCC(=O)N(CCc2ccccc2)C1 (configuration not stated) | – | inactive: -0.353% |
| COc1cccc(CN(Cc2ccco2)S(=O)(=O)c2ccc(S(=O)(=O)NCc3ccccc3)cc2)c1OC | – | inconclusive: 26.3% |
| O=C(COC(=O)c1cccc(Br)c1)NC(=O)NC1CCCC1 | – | inactive: 2.65% |
| CN(C)CCCNc1ncnc2sc(-c3ccccc3)cc12 | – | inactive: 4.97% |
| COc1ccc(C(=O)Nc2ccc3nc(C)sc3c2)cc1OC | inconclusive: 11.2 µM [falling, partial curve] | – |

| Structure (SMILES) | Potency | activity change, negative = inhibition |
| --- | --- | --- |
| COc1ccccc1NCC(=O)N/N=C/c1cccnc1 | inconclusive: 10 µM [falling, partial curve, poor fit] | – |
| COc1ccc(/C=N/Nc2ncnc3sc4c(c23)CCCC4)cc1OC | – | inactive: -4.46% |
| COc1cc(-c2c(NC(=O)c3ccco3)oc3ccccc3c2=O)cc(OC)c1OC | – | inactive: 0.0604% |
| CCOC(=O)c1c(NC(=O)CSc2nnc(-c3ccccc3)o2)sc(C(C)=O)c1C | inconclusive: 6.51 µM [rising, full curve, poor fit] | – |
| CC(=O)NC1C(=O)N(CCc2ccccc2)c2ccc(Br)cc21 (configuration not stated) | – | inconclusive: -8.82% |
| CCN(CC)C(=O)c1cc2c(=O)n3cccc(C)c3nc2s1 | – | inactive: -16.8% |
| COc1ccc(C2CC(C)=C(C#N)S(=O)(=O)C2C#N)cc1 (configuration not stated) | – | inconclusive: 8.22% |
| Cc1[nH]c2ccccc2c1C(c1ccncc1)N1CCN(c2ccccn2)CC1 (configuration not stated) | – | inconclusive: -0.0193% |
| C=CCN=C1SC(CC)C(=O)N1S(=O)(=O)c1ccc(C)cc1 (configuration not stated) | – | inconclusive: -23.4% |
| O=[N+]([O-])c1ccccc1OCCCn1cnc2ccccc21 | – | inactive: 7.31% |
| COc1ccc(N=C2S/C(=C\c3ccc(OC(C)C(=O)O)c(OC)c3)C(=O)N2CCc2c[nH]c3ccccc23)cc1 (configuration not stated) | – | inactive: 27.1% |
| COC(=O)c1sccc1-c1ccc(/C=N/OC(=O)c2cccs2)o1 | – | inactive: -19.5% |
| CC(=O)Nc1ccc(NC(=O)CCCSc2nc3ccccc3[nH]2)cc1 | – | inconclusive: -1.07% |
| CN(c1cccc(NC(=O)CN(c2ccc(C34CC5CC(CC(C5)C3)C4)cc2)S(C)(=O)=O)c1)S(C)(=O)=O | – | inactive: 13% |
| COc1c(Cl)cc(Cl)cc1C(=O)n1nc(C)cc1C | – | inconclusive: 16.4% |
| O=C1CSC2(CCCCC2)N1CCO | – | inconclusive: 1.77% |
| O=C(O)C(Cc1ccccc1)N1C(=O)/C(=C/c2cccc3ccccc23)SC1=S (configuration not stated) | inconclusive: 0.82 µM [rising, full curve, poor fit] | – |
| O=C(Nc1ccc(F)cc1F)c1ccc(CN2CC(=O)N3CCCCC3C2=O)cc1 (configuration not stated) | – | inactive: -2.77% |
| COCCn1c(-c2ccccc2)nc2oc3ccccc3c(=O)c2c1=O | – | inconclusive: -1.3% |
